# Drug screen on melanoma cell lines: apoptosis marker

Data from the primary screen of doi:10.1371/journal.pone.0140310, rounded.

Drugs:
sorafenib, 2 µM: CNC(=O)c1cc(Oc2ccc(NC(=O)Nc3ccc(Cl)c(C(F)(F)F)c3)cc2)ccn1
fludarabine, 1 µM: Nc1nc(F)nc2c1ncn2[C@@H]1O[C@H](CO)[C@@H](O)[C@@H]1O

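Human melanoma cell lines in 1,536-well plates were treated with two drugs together for 72 h, then fixed, stained and imaged. Values are the share of nuclei positive for cleaved PARP as a percentage of the same share in the DMSO control: 100 is the control level, higher means more apoptosis. Concentrations were fixed for each drug; these are the higher of two levels. No replicate spread is given; individual values may be noisy. The marker varies much from line to line, for technical or biological reasons.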 This is part of the screen, not chosen by result.

| Pair | WM115 | SK-MEL-28 | SK-MEL-30 | SK-MEL-2 | A375 | MEL-HO | WM3619 | LOX IMVI |
|---|---|---|---|---|---|---|---|---|
| sorafenib + fludarabine | 59.0 | 966 | 998 | 1440 | 248 | 88.8 | 76.7 | 110 |